The assay is described as follows: qHTS Assay for Lipid Storage Modulators in Drosophila S3 Cells.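 On cell number change: cells counted by Cell Tracker Red CMTPX staining in the red channel.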 Conditions: BODIPY lipid droplet fluorescence, 18-24 h; for cell number change: measured here: cell count max response, cells fed with added oleic acid. In a few lines:
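Drosophila S3 cells got compounds at several concentrations plus oleic acid (400 uM solution). Laser-scanning cytometry with 488 nm excitation read lipid droplets at 500-530 nm and cells at 575-640 nm. Percent activity was relative to 20 uM Triacsin C.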
On the technique in general: Quantitative high-throughput screening tests each substance at several concentrations.

Where [1] appears, read: measured here: cell number channel AC50, cells fed with added oleic acid.
Setting [2] is: measured here: lipid fluorescence (Fed channel) AC50, cells fed with added oleic acid.

The structures appear in SMILES notation. Some of the results follow. Shown are side measurements of this screen, not its main read-out; they come without a call. Most of these compounds were active or inconclusive in the main read-out, so they are no random draw. The note in brackets gives the kind of curve behind each potency; many fits are weak. Where a SMILES comes first, the peptide text is derived from it. The star is where a group is joined. Boc = CC(C)(C)OC(=O)*

In general, AC50 refers to the concentration at which the activity in the assay is half-maximal.

Take `CCCCNC(=O)CCn1c(=S)[nH]c2cc3c(cc2c1=O)OCO3`: the cell number change is -7.18%.
Regarding `Cc1nc(=S)n(-c2ccccc2)[nH]1`, the cell number change was -93.6%. Under setting [1], the AC50 was 29.1 µM [falling, single point].
Turning to `O=C(NNC(=O)c1ccc(F)cc1)c1ccncc1`, the cell number change was found to be 8.76%. Besides, the concentration at half-maximal activity (AC50) under setting [2] is 0.58 µM [rising, single point].
As to `Cc1csc(=O)n1CCC(=O)OCc1nnc(-c2ccc(Cl)cc2)o1`, the AC50 under setting [2] was 6.51 µM [falling, single point].
Regarding `COc1ccc(NC2=CC(c3ccc(F)cc3)N(c3ccc(OC)cc3)C2=O)cc1` (stereo not given), the cell number change is -0.249%.
On to `O=C(C1=C(O)C(=O)N(CCCn2ccnc2)C1c1cccc(Br)c1)c1ccco1` (stereo not given), for which the cell number change was found to be 10.8%. Besides, the half-maximal activity concentration (AC50) under setting [2] is 29.1 µM [rising, partial curve, poor fit].
As for `O=C(NNC(=O)c1c(O)c2ccccc2[nH]c1=O)c1ccccc1Br`, the cell number change was -3.42%. In addition, the AC50 under setting [2] was 6.51 µM [falling, single point].
On to `Cc1onc(-c2ccccc2)c1C(=O)NCc1ccccc1F`, for which the cell number change is -3.95%. The AC50 under setting [2] was 5.62 µM [rising, single point].
`CC(=O)CCc1c(C)[nH]c2ccc(NC(C)=O)cc2c1=O`: the cell number change was -23.2%. For the same compound, the AC50 under setting [2] is 0.103 µM [falling, full curve, poor fit].
In the case of `COc1ccc(/C=N/NC(=O)Nc2cccc3nsnc23)cc1`, the cell number change is -34.2%. Also, under setting [1], the AC50 was 0.206 µM [falling, full curve].
Consider `Cc1cc(/C=C2\SC(=S)N(Cc3ccco3)C2=O)c(C)n1-c1cccnc1`, for which the AC50 under setting [2] was 20.6 µM [falling, partial curve].
Consider `Cc1ccc(S(=O)(=O)N2CCCCC2)c(C)c1NS(C)(=O)=O`, for which the cell number change came to 11.7%.
For `CN(CC(=O)Nc1ccccc1Cl)C(=O)Cn1cnc2ccc(Cl)cc2c1=O`, the cell number change is 6.45%. Also, the AC50 under setting [2] was 0.00411 µM [falling, full curve, poor fit].
With `Cc1cc(C(=O)C(C)Cl)c(C)n1Cc1ccco1` (stereo not given), the cell number change is -21.6%.
In the case of `CCN(c1ccccc1)S(=O)(=O)c1ccc(OC)c(NC(=O)Cc2ccc(OC)c(OC)c2)c1`, the cell number change was -7.01%. Also, under setting [2], the AC50 is 1.84 µM [rising, partial curve].
Regarding `COc1cc(/C=N/NC(=O)c2ccc(COc3cc(C)ccc3C(C)C)cc2)cc(OC)c1O`, the cell number change is -38.3%. Besides, the AC50 under setting [1] is 18.4 µM [falling, partial curve, poor fit]. For the same compound, the AC50 under setting [2] was 0.326 µM [falling, full curve].
In the case of `O=C(Nc1cccc(-c2nc3ccccc3s2)c1)c1cc(-n2cnnc2)ccc1Cl`, the cell number change is -21.9%. Moreover, under setting [2], the half-maximal activity concentration (AC50) was 3.26 µM [falling, full curve, poor fit].
As to `CCOc1ccc(-n2c(SCC(=O)Nc3nccs3)nc3c(c2=O)SCC3)cc1`, the AC50 under setting [1] was 0.206 µM [rising, full curve, poor fit] and the AC50 under setting [2] is 0.291 µM [rising, partial curve, poor fit].
Consider `Cc1cc(=O)n2c3ccccc3n(CC(O)CN3CCN(Cc4ccccc4)CC3)c2c1C#N` (stereo not given), for which the cell number change was -16.4%.
For the compound `CC1CC1C(=O)OCC(=O)Nc1ccc2[nH]c(=O)[nH]c2c1` (stereo not given), the cell number change was -9.23%.
With `CCOC(=O)C1=C(O)C(=O)N(c2ccc(S(N)(=O)=O)cc2)C1c1ccc(OC)cc1OC` (stereo not given), the cell number change is 4.63%. For the same compound, the AC50 under setting [2] was 0.411 µM [falling, full curve, poor fit].
`O=C(CC1NC(=O)NC1=O)Nc1ccccc1` (stereo not given): the cell number change was -47.1%. For the same compound, the AC50 under setting [1] is 0.231 µM [falling, full curve, poor fit]. Besides, under setting [2], the AC50 is 0.184 µM [falling, full curve].
Turning to `Cc1cccc(N2CCN(S(=O)(=O)c3ccc(-c4ccc(=O)[nH]n4)o3)CC2)c1C`, the cell number change was 31%. The AC50 under setting [1] was 29.1 µM [rising, single point]. Moreover, the AC50 under setting [2] is 18.4 µM [rising, single point].
On to `Cc1cc(C)c2c(c1)c1nnc(SCCN3CCCCC3)nc1n2C`, for which the cell number change was -4.17%.
The same measure, in the same setting: to `OCC(O)C1OC(Nc2ccc(Cl)cc2)C(O)C1O` (stereo not given) belongs -35.5%.
With `CCCC1(CCC)NC(=O)N(CC(=O)Nc2ccccc2OC)C1=O`, the cell number change was -6.57%. For the same compound, the AC50 under setting [2] was 0.00461 µM [falling, full curve, poor fit].
As to `COCCN(CCOC)C(=O)c1ccc(NS(=O)(=O)c2ccc3[nH]c(=O)[nH]c3c2)cc1`, the cell number change was 2.31%.
On to `CCCCc1ccc(NC(=S)NCc2ccc(OC)cc2)cc1`, for which the cell number change was 10.5%. Further, the AC50 under setting [1] is 6.51 µM [falling, single point]. Further, the AC50 under setting [2] was 18.4 µM [falling, single point].
Regarding `COc1ccc(CNC(=O)CCCOc2cc(=O)n(C)c3ccccc23)cc1`, the cell number change amounted to 122%. Moreover, under setting [1], the concentration at half-maximal activity (AC50) was 16.4 µM [rising, single point].
With `CC(C)C(=O)Nc1cccc(C(=O)Nc2ccc(S(=O)(=O)N3CCOCC3)cc2)c1`, the AC50 under setting [2] was 29.1 µM [falling, single point].
On to `CSc1ccc(-c2nc(CSCC(=O)NC3CC3)c(C)o2)cc1`, for which the cell number change turned out to be 22.4%. Also, the AC50 under setting [2] is 23.1 µM [rising, single point].
As for `O=C(c1cnc(Cl)c(Cl)c1)N1CCC(Cc2ccccc2)CC1`, the cell number change was 80.3%.
For `O=C(NCc1ccco1)c1ccccc1Nc1ccc(F)cc1`, under setting [2], the AC50 is 6.51 µM [falling, single point].
In the case of `O=C(NCc1cccc(Cl)c1)c1cccc(S(=O)(=O)N2CCCC2)c1`, the cell number change worked out at 0.242%. For the same compound, under setting [2], the AC50 is 25.9 µM [falling, single point].
As for `COc1ccc(S(=O)(=O)N2CCCCCC2)cc1`, the cell number change was -7.3%. The AC50 under setting [2] was 29.1 µM [falling, single point].
In the case of `CCOC(=O)c1sc(NC(=O)CSc2nnnn2-c2ccc(C)c(C)c2)nc1C`, the cell number change was -20.6%. For the same compound, under setting [2], the AC50 was 7.31 µM [falling, partial curve, poor fit].
With `CCOCCn1c(SCc2cccc(C)c2)nc2c1c(=O)[nH]c(=O)n2C`, the cell number change is 20.8%. Further, the AC50 under setting [2] is 16.4 µM [rising, single point].
Turning to `Cc1ccc(CN(C)C(=O)COC(=O)CSc2ccc([N+](=O)[O-])cc2)cc1`, the cell number change was -25%. Further, the AC50 under setting [1] was 0.00461 µM [rising, full curve, poor fit].
Take `Cc1ccc(C(=O)NCCCN2CCOCC2)cc1N1CCCC1=O`: the cell number change was determined as 0.46%. In addition, the concentration at half-maximal activity (AC50) under setting [1] was 2.06 µM [rising, partial curve, poor fit].
For `COc1ccc(NC(=S)N(Cc2cccnc2)Cc2cc3cc(OC)c(OC)cc3[nH]c2=O)cc1`, the cell number change is -8.11%. Under setting [2], the AC50 was 0.058 µM [rising, full curve, poor fit].
Take `Cc1[nH][nH]c(=O)c1C=NCc1cccs1`: the cell number change is -29.5%. Further, the AC50 under setting [1] was 2.06 µM [falling, full curve, poor fit]. Under setting [2], the AC50 was 0.92 µM [falling, full curve, poor fit].
As for `CCN1C(=O)C2(C(C(=O)c3ccc(C)o3)=C(O)C(=O)N2CCCN2CCOCC2)c2ccccc21` (stereo not given), the cell number change was -1.17%.
`CCC(=O)N1CCc2cc(S(=O)(=O)NCCC(=O)NC3CCCCCC3)ccc21`: the cell number change came to 17.9%. Further, the AC50 under setting [2] is 29.1 µM [falling, single point].
With `Cc1cc2ncc(-c3ccccc3)nc2cc1C`, the cell number change is -29.9%. Moreover, under setting [2], the concentration at half-maximal activity (AC50) is 29.1 µM [falling, single point].
Regarding `CSc1ccc(S(=O)(=O)N2CCC(C(=O)NCc3ccco3)CC2)cc1`, the cell number change came out at 19.2%. Moreover, the AC50 under setting [2] was 6.51 µM [rising, single point].
As for `COc1ccc(S(=O)(=O)Nc2cc(Cl)ccc2-n2cncn2)cc1`, the cell number change was -13%.
Same read-out and setting: to `Cc1ccc(OCc2cc(C(=O)NCc3cnn(-c4cccc(F)c4)c3)no2)cn1` belongs -9.67%.
Consider `Cc1ccccc1-c1oc(C)c(C)[n+]1[O-]`, for which the cell number change came to 6.55%. The AC50 under setting [2] was 4.61 µM [falling, single point].
Regarding `COc1ccc2c(c1)CC/C(=C\c1ccc(C)o1)C2=O`, the cell number change came out at 19.2%. For the same compound, the AC50 under setting [2] is 2.59 µM [rising, partial curve].
Turning to `CCN(CC)c1ccc(N=Cc2ccc(N(CC)CC)cc2O)cc1`, the cell number change was found to be 6.71%. Also, the AC50 under setting [2] was 13 µM [rising, single point].
Consider `CC(C)CC(=O)NC1(C(F)(F)F)C(=O)Nc2c1c(=O)n(C)c(=O)n2C` (stereo not given), for which, under setting [2], the AC50 was 5.17 µM [falling, partial curve].
For `Cc1cc(C)c(S(=O)(=O)Nc2ccc(C(N)=O)cc2)c(C)c1`, the cell number change is 17.9%.
Still for that read-out and setting: to `Clc1ccc(-c2ccc(C=Nc3ccc(N4CCOCC4)cc3)o2)c(Cl)c1` belongs 1.58%.
On to `CN(C(=O)COC(=O)c1ccc(F)c(S(=O)(=O)N2CCOCC2)c1)C1CCS(=O)(=O)C1` (stereo not given), for which the cell number change is -9.96%. Under setting [1], the AC50 was 0.461 µM [falling, single point].
With `O=C(COc1ccc(Cl)cc1Cl)N/N=C/C1CC=CCC1` (stereo not given), the half-maximal activity concentration (AC50) under setting [2] was 3.26 µM [falling, partial curve].
Take `COc1ccc(NC(=O)CCC(=O)N/N=C/c2ccc([N+](=O)[O-])s2)cc1`: the cell number change was -13.6%. Also, under setting [2], the AC50 was 11.6 µM [falling, single point].
With `O=C(NCc1ccccn1)c1n[nH]c2ccccc12`, the cell number change was 63.8%. In addition, under setting [1], the AC50 was 6.51 µM [rising, full curve]. In addition, under setting [2], the AC50 is 6.51 µM [rising, single point].
Regarding `Cn1c(Cn2c(=O)sc3ccccc32)nnc1SCC(=O)NCc1ccc2c(c1)OCO2`, the cell number change was -15.2%. Further, under setting [2], the AC50 was 16.4 µM [falling, single point].
Consider `CC1CCN(S(=O)(=O)c2ccc(NC(=O)CNC3CCCCC3)cc2)CC1`, for which the cell number change is 4.76%.
For `O=C(O)c1ccccc1SCc1csc(-c2ccccc2)n1`, the cell number change is -15.4%. For the same compound, the AC50 under setting [2] was 29.1 µM [falling, single point].
Take `COc1ccc(C(=O)Nc2ccc(NC(=O)C3CCCCC3)nc2)cc1`: the cell number change is -7.26%. The AC50 under setting [2] is 29.1 µM [rising, single point].
Take `CN(CC(=O)Nc1ccc(C#N)cc1)Cc1ccc(Cl)cc1`: the cell number change is -25.8%. Moreover, the AC50 under setting [2] was 0.184 µM [falling, full curve, poor fit].
Take `CC(C)CC(NC(=O)OC(C)(C)C)C(=O)NC(C(=O)NC(C)C(N)=O)C(C)C` (stereo not drawn) (Boc-Leu-Val-Ala-NH2; configuration not given here): the AC50 under setting [2] is 0.146 µM [falling, full curve, poor fit].
For `Cc1ccc(N(CC(=O)N2CCN(c3ccc(F)cc3)CC2)S(=O)(=O)c2c(C)noc2C)cc1`, the cell number change is 26.6%.

The values are drawn from PubChem BioAssay AID2685 (National Center for Advancing Translational Sciences (NCATS), 2010).
